Some results were stated once for a whole list of compounds, not compound by compound. At least one structure is not confirmed: it was looked up by name or label, or the drawing left a doubt.
Tested on: I.C.R. mice
Assay: Acute Toxicity Test, oral, mice
Assay type: in vivo
Conditions: oral, 1,000, 2,000 and 3,000 mg/kg, observed 7 days
Protocol: The acute toxicity of the compound of Example 1 was tested using several groups of I.C.R. mice each of 10 mice. 500 mg/kg, 1,000 mg/kg, and 2,000 mg/kg doses of the compound of Example 1 were orally administered. […] Thus, LD50 was placed at a level higher than 2,000 mg/kg. The compound of Example 1 is thus a largely non-toxic antibiotic.
In addition, acute toxicity of the compounds of Examples 10 and 17 was tested using two groups of I.C.R. mice each of 5 mice/2 groups. 1,000 mg/kg, 2,000 mg/kg, and 3,000 mg/kg doses of the compounds of Examples 10 to 17 were orally administered. […] Thus, LD50 was placed at a level higher than 3,000 mg/kg. Therefore, the compounds of Examples 10 to and 17 are non-toxic antibiotics.

C[C@@H](O)[C@H]1C(=O)N2C(C(=O)OCOC(=O)C(C)(C)C)=C(SC3CN(Cc4ccc(F)cc4)C3)[C@H](C)[C@H]12.O=P(O)(O)O [Example 10, Phosphoric Acid Salt of pivaloyloxymethyl(1R,5S,6S)-2-[(1-(4-fluorobenzyl)azetidin-3-yl)thio]-6-[(R)-1-hydroxyethyl]-1-methyl-carbapen-2-em-3-carboxylate]
LD50: higher than 3,000 mg/kg

C[C@@H](O)[C@H]1C(=O)N2C(C(=O)OCOC(=O)C(C)(C)C)=C(SC3CN(Cc4ccc(F)cc4)C3)[C@H](C)[C@H]12.O=C(O)/C=C/C(=O)O [Example 17, Fumaric Acid Salt of pivaloyloxymethyl(1R,5S,6S)-2-[(1-(4-fluorobenzyl)azetidin-3-yl)thio]-6-[(R)-1-hydroxyethyl]-1-methyl-carbapen-2-em-3-carboxylate]
LD50: higher than 3,000 mg/kg

— patent US20110118229A1, “2-ARYLMETHYLAZETIDINE-CARBAPENEM-3-CARBOXYLIC ACID ESTER DERIVATIVE OR ITS SALT, PROCESS FOR THE PREPARATION THEREOF AND PHARMACEUTICAL COMPOSITION COMPRISING THE SAME” (KUKJE PHARM. IND. CO., LTD., priority 2007, published 2011)
